Laboratory results reported in patent publication US20120045505A1, “FIXED DOSE DRUG COMBINATION FORMULATIONS” (Dr. Reddy's Laboratories, Inc., priority 2004, published 2012).

Experiment: Storage stability of capsules in closed HDPE bottles at 40° C. and 75% relative humidity for 6 months: drug content and drug-related impurities
Type: physicochemical
Settings: Example 3 capsule
Experimental: Capsules prepared above are stored in closed high-density polyethylene (HDPE) bottles at 40° C. and 75% relative humidity for 6 months, and are analyzed for drug content and the levels of drug-related impurity formation.
Capsules prepared above are stored in closed HDPE bottles at 40° C. and 75% relative humidity for 6 months, and are analyzed for drug content and the levels of drug-related impurities.

- Impurity: Blocker acid (6 Months, 40° C./75% RH): 0.04 % of label content
- Impurity: DIOL (6 Months, 40° C./75% RH): 0.108 % of label content
- Impurity: Diacetyl (6 Months, 40° C./75% RH): 0.007 % of label content
- Impurity: N-Monoacetyl (6 Months, 40° C./75% RH): 0.002 % of label content
- Impurity: PHPA (6 Months, 40° C./75% RH): 0.047 % of label content
- Impurity: Tertiary amine (6 Months, 40° C./75% RH): 0.029 % of label content
- Impurity: Blocker acid (Initial): 0.049 % of label content
- Impurity: DIOL (Initial): 0.108 % of label content
- Impurity: Diacetyl (Initial): 0.004 % of label content
- Impurity: N-Monoacetyl (Initial): 0.001 % of label content
- Impurity: PHPA (Initial): 0.022 % of label content
- Impurity: Tertiary amine (Initial): 0.028 % of label content
Compound: CC(C)NCC(O)COc1ccc(CC(N)=O)cc1 (stereo not drawn) [Atenolol]
